Data as given in PubChem BioAssay AID504774 (Drosophila RNAi Screening Center, 2011).

Screen: 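Fly genes whose loss alters survival after alkylation damage to DNA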 (primary screen)
System: Drosophila Kc167 cells
Reagent: long dsRNA against Drosophila genes, about 0.25 µg dsRNA per well
Timing: about 6 days: 3 days knock-down, then 3 days with or without MMS
Treatment: methyl methanesulphonate 0.004% (w/v) for 3 days after knock-down
Read-out: 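Viability in wells given MMS, read as ATP luminescence, normalised by quantiles plate by plate and averaged across replicates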
Reading the numbers: mean viability with MMS and viability with MMS: higher = more surviving cells after MMS
The deposit covers about 23,000 reagents; below is an unselected part of those with a known target gene and a result. 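Values are quantile-normalised luminescence on an arbitrary scale; higher means more cells surviving MMS.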 A plus sign joins genes that one reagent is predicted to hit.

mean viability with MMS | viability with MMS, replicate 1 | viability with MMS, replicate 2 | target | amplicon
3.58e6 | 4.02e6 | 4.09e6 | Mettl2 (Methyltransferase like 2) | DRSC08398
3.91e6 | 4.49e6 | 4.38e6 | Targ3 (Terminal ADP-ribose protein glycohydrolase 3) | DRSC11471
3.69e6 | 4.01e6 | 4.33e6 | ph-p (polyhomeotic proximal) | DRSC18820
3.57e6 | 4.18e6 | 3.92e6 | CG13599 | DRSC14602
3.51e6 | 4.17e6 | 3.80e6 | Sik2 (Salt-inducible kinase 2) | DRSC18522
3.43e6 | 3.92e6 | 3.90e6 | CG16749 | DRSC15146
3.29e6 | 3.71e6 | 3.70e6 | Nil (Nilkantha) | DRSC15953
3.65e6 | 4.15e6 | 4.14e6 | Nil (Nilkantha) | DRSC23322
3.66e6 | 4.15e6 | 4.38e6 | CG2225 | DRSC03722
3.45e6 | 4.01e6 | 3.78e6 | CG2225 | DRSC03723
3.52e6 | 3.99e6 | 4.00e6 | DopEcR (Dopamine/Ecdysteroid receptor) | DRSC08529
3.59e6 | 4.01e6 | 4.12e6 | CG17698 | DRSC11907
3.51e6 | 4.03e6 | 3.94e6 | AANATL7 (Arylalkylamine N-acetyltransferase-like 7) | DRSC18616
3.44e6 | 4.01e6 | 3.79e6 | CG10214 | DRSC14213
3.63e6 | 4.21e6 | 4.00e6 | CG32712 | DRSC17820
3.47e6 | 3.76e6 | 4.13e6 | Acsx2 (Acyl-CoA synthetase X2) | DRSC14308
3.75e6 | 4.18e6 | 4.32e6 | IFT54 (Intraflagellar transport 54) | DRSC15469
3.28e6 | 3.74e6 | 3.75e6 | Taf2 (TBP-associated factor 2) | DRSC11298
3.74e6 | 4.17e6 | 4.30e6 | CG17618 (retired record) + CG45049 | DRSC16163
2.56e6 | 3.68e6 | 3.71e6 | CG17618 (retired record) + CG45049 | DRSC22054
3.61e6 | 4.09e6 | 4.11e6 | CG17618 (retired record) + CG45049 | DRSC23175
3.71e6 | 4.14e6 | 4.27e6 | Cbl (Cbl proto-oncogene) | DRSC10764
3.44e6 | 3.85e6 | 3.96e6 | Cbl (Cbl proto-oncogene) | DRSC11111
3.74e6 | 4.05e6 | 4.30e6 | CG42809 + CG42810 | DRSC02532
3.70e6 | 4.23e6 | 4.08e6 | CG42809 + CG42810 | DRSC02533
3.73e6 | 4.17e6 | 4.26e6 | CG30195 | DRSC04155
3.60e6 | 4.05e6 | 4.11e6 | CG14410 | DRSC19596
3.55e6 | 3.96e6 | 4.07e6 | Hydr2 (alpha/beta hydrolase2) | DRSC00607
3.59e6 | 4.12e6 | 4.01e6 | CG12003 | DRSC08214
3.49e6 | 3.91e6 | 4.01e6 | CG1941 | DRSC06802
3.44e6 | 3.96e6 | 3.87e6 | Lcp2 (Larval cuticle protein 2) | DRSC07456
3.54e6 | 4.01e6 | 4.02e6 | CG3598 | DRSC18471
3.44e6 | 3.92e6 | 3.85e6 | Coq4 + Gorab + frc | DRSC10383
3.50e6 | 3.99e6 | 3.95e6 | CG3164 | DRSC00572
3.62e6 | 4.00e6 | 4.16e6 | Ugt35E1 (UDP-glycosyltransferase family 35 member E1) | DRSC15193

Limited to “viability with MMS, replicate 1”, for 7 of the entries above:
Taf2 (TBP-associated factor 2) [DRSC11298] = 3.74e6
CG17618 (retired record) + CG45049 [DRSC16163] = 4.17e6
CG17618 (retired record) + CG45049 [DRSC22054] = 3.68e6
CG17618 (retired record) + CG45049 [DRSC23175] = 4.09e6
Cbl (Cbl proto-oncogene) [DRSC10764] = 4.14e6
Cbl (Cbl proto-oncogene) [DRSC11111] = 3.85e6
CG42809 + CG42810 [DRSC02532] = 4.05e6

Additional records follow.
mean viability with MMS | viability with MMS, replicate 1 | viability with MMS, replicate 2 | target | amplicon
3.59e6 | 4.09e6 | 4.02e6 | LRP1 (LDL receptor protein 1) | DRSC07238
3.57e6 | 4.02e6 | 4.08e6 | Rgk2 (Rad, Gem/Kir family member 2) | DRSC06503
3.59e6 | 4.13e6 | 4.01e6 | Rgk2 (Rad, Gem/Kir family member 2) | DRSC21651
3.69e6 | 4.15e6 | 4.22e6 | CG33791 + CG12105 + CG18170 | DRSC08387
3.92e6 | 4.73e6 | 4.30e6 | CG5611 | DRSC15843
3.23e6 | 3.59e6 | 3.92e6 | CG11409 | DRSC18579
3.70e6 | 4.13e6 | 4.16e6 | Fkbp14 (FK506-binding protein 14) | DRSC04615
3.51e6 | 3.99e6 | 3.98e6 | CG15446 | DRSC20518
3.88e6 | 4.25e6 | 4.58e6 | CG13138 | DRSC02235
3.50e6 | 3.94e6 | 3.98e6 | sub (subito) | DRSC06125
3.52e6 | 3.97e6 | 4.02e6 | CG10341 | DRSC02040
3.50e6 | 4.06e6 | 3.86e6 | Mgtor (Megator) | DRSC05958
3.05e6 | 3.53e6 | 3.49e6 | Ice1 (Interacts with the C terminus of ELL 1) | DRSC04191
3.55e6 | 3.94e6 | 4.11e6 | CG14298 | DRSC14777
3.62e6 | 4.12e6 | 4.04e6 | CG10748 | DRSC09797
3.46e6 | 3.89e6 | 3.94e6 | CG3611 | DRSC04395
3.44e6 | 3.74e6 | 4.03e6 | CG11828 | DRSC14394
3.68e6 | 4.12e6 | 4.13e6 | CG11828 | DRSC22580
3.61e6 | 4.19e6 | 4.03e6 | CG31183 | DRSC14403
3.54e6 | 3.92e6 | 4.10e6 | CG31183 | DRSC15554
3.58e6 | 4.07e6 | 4.03e6 | CG10512 | DRSC11615
3.77e6 | 4.15e6 | 4.40e6 | euc (eucalyptus) | DRSC14492
3.75e6 | 4.09e6 | 4.46e6 | Vajk3 | DRSC01883
3.51e6 | 3.94e6 | 4.02e6 | CG42615 | DRSC05121
3.42e6 | 3.90e6 | 3.86e6 | CG33702 | DRSC08986
3.55e6 | 4.02e6 | 4.01e6 | CG14464 | DRSC07760
3.63e6 | 4.06e6 | 4.10e6 | asRNA:CR33945 (antisense RNA:CR33945) | DRSC14080
3.62e6 | 3.88e6 | 4.30e6 | HP5 (Heterochromatin protein 5) | DRSC19773
3.49e6 | 3.97e6 | 3.95e6 | CG13931 | DRSC08400
3.55e6 | 3.90e6 | 4.18e6 | Or59b (Odorant receptor 59b) | DRSC04632
3.57e6 | 4.07e6 | 4.02e6 | Usp12-46 (Ubiquitin-specific protease 12/46) | DRSC16175
3.64e6 | 4.06e6 | 4.23e6 | asl (asterless) | DRSC12319
3.48e6 | 4.17e6 | 3.74e6 | Smyd5 (SET and MYND domain containing, class 5) | DRSC15483
3.52e6 | 3.93e6 | 4.05e6 | CG33270 | DRSC10584
1.95e6 | 4.11e6 | – | CG18635 | DRSC06780
3.63e6 | 4.06e6 | 4.16e6 | CG7829 | DRSC16322
3.56e6 | 4.05e6 | 4.02e6 | CG12521 | DRSC09893
3.57e6 | 4.03e6 | 4.06e6 | Nepl20 (Neprilysin-like 20) | DRSC14878
3.45e6 | 3.90e6 | 3.94e6 | clos (closca) | DRSC06240
3.48e6 | 3.93e6 | 3.99e6 | clos (closca) | DRSC06241
3.44e6 | 3.88e6 | 3.94e6 | clos (closca) | DRSC06778
3.45e6 | 4.01e6 | 3.85e6 | clos (closca) | DRSC21857
3.53e6 | 4.02e6 | 3.98e6 | clos (closca) | DRSC22942
3.63e6 | 4.11e6 | 4.05e6 | unpg (unplugged) | DRSC07713
3.52e6 | 4.09e6 | 3.89e6 | LIMK1 (LIM domain kinase 1) | DRSC19811
3.70e6 | 4.32e6 | 4.01e6 | Idi (Isopentenyl-diphosphate delta isomerase) | DRSC15918
3.56e6 | 4.02e6 | 4.04e6 | Vps52 (Vacuolar protein sorting 52) | DRSC03050
3.39e6 | 3.83e6 | 3.84e6 | CG33332 | DRSC15504
3.59e6 | 4.02e6 | 4.12e6 | CG2712 | DRSC18589
3.33e6 | 3.69e6 | 3.78e6 | Ubqn (Ubiquilin) | DRSC19581
3.52e6 | 3.92e6 | 4.08e6 | slim (scruin like at the midline) | DRSC06921
3.60e6 | 4.14e6 | 4.03e6 | CG3739 | DRSC15510
